We go through 1 substance from paper PMC6319772.

Amino acid sequences for entries named in this document (tags omitted).
UniProt Q9VDJ9: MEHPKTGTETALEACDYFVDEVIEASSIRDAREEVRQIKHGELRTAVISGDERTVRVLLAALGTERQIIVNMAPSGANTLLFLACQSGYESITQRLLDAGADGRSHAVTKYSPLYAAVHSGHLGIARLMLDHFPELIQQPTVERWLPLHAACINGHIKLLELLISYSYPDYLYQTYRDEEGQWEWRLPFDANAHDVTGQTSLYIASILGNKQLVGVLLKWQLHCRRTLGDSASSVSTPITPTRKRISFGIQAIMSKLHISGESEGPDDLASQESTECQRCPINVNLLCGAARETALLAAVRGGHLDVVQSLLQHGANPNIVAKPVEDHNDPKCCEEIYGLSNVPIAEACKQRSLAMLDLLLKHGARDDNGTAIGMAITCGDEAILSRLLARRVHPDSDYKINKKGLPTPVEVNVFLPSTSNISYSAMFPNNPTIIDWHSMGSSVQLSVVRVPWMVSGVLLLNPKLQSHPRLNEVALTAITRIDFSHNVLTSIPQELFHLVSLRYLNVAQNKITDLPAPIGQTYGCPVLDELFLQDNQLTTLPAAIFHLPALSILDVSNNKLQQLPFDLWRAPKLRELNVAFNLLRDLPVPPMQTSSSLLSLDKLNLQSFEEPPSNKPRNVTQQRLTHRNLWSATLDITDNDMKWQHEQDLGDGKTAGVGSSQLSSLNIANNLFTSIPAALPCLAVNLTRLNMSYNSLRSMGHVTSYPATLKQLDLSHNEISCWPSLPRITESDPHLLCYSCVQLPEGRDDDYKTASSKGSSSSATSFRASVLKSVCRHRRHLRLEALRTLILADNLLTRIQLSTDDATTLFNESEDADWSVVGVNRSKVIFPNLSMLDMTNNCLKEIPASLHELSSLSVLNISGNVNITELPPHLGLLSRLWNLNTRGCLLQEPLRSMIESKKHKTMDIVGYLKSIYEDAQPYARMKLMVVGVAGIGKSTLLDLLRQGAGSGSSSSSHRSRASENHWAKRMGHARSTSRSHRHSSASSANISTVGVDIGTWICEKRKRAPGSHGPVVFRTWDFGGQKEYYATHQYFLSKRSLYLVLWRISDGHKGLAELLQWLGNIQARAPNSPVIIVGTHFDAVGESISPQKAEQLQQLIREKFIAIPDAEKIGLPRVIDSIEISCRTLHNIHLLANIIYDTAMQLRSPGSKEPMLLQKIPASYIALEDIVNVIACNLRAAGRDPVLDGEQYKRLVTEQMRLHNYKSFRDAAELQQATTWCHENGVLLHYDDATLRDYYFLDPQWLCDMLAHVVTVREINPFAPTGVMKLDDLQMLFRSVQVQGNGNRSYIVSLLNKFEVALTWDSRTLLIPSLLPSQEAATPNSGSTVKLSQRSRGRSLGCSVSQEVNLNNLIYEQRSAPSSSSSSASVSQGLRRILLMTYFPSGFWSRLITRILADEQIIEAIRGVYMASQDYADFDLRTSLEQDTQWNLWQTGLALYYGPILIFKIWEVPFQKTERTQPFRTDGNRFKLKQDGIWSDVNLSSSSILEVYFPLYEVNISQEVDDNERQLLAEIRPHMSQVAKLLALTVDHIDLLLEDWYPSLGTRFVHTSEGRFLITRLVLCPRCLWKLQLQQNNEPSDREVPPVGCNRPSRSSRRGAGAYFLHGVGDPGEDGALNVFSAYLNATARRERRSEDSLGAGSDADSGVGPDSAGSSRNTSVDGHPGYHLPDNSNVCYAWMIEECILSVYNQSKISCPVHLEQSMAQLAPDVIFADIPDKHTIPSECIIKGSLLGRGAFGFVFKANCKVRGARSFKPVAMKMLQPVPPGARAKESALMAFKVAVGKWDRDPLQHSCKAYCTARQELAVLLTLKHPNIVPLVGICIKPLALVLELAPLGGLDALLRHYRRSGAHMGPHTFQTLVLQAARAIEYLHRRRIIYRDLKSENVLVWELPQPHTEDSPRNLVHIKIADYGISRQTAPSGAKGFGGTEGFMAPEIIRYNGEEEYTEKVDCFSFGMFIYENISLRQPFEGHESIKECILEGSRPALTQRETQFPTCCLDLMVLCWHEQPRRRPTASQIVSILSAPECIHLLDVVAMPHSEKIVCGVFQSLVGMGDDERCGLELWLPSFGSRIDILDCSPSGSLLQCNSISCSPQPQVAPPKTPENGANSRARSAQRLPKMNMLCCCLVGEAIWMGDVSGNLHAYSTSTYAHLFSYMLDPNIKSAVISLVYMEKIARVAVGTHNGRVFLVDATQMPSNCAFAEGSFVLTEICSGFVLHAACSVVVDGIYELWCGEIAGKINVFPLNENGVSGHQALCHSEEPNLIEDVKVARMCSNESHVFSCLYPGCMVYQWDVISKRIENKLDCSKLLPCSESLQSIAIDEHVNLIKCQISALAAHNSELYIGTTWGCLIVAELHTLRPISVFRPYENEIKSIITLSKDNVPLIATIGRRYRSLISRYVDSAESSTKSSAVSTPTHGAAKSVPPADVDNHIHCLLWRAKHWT

For the test, the target named is HA-tagged Drosophila Lrrk expressed from its endogenous promoter (Lrrk^HA knockin) (Drosophila) (UniProt Q9VDJ9). The test is described as follows: native gel or EMSA; native PAGE of head lysates of flies with one Lrrk^HA allele and transgenic wild-type Lrrk or Lrrk-GS; western blot probed with anti-HA. For orientation: Mobility shift assays separate free from complexed probe on a gel.

These are yes or no findings as the source states them, for the method shown. Some results given as binding are weak or reduced against the parent protein; the word gives no strength.

As to “HA-tagged Drosophila Lrrk expressed from its endogenous promoter (Lrrk^HA knockin) (from UniProt Q9VDJ9 1-2445) (enzyme)”, the binding result is “binds”.
